Measurements as given in article PMC5557939.
No constants are given. Whether binding was seen depends on the method and setting. In cells and extracts the contact can be indirect. Some binding calls cover weakened binding; strength is not graded here. For part of these data: Tags and fused reporters may be left off the sequences shown.

The chains behind the UniProt entries cited, without tags or fusion partners.
UniProt Q62318: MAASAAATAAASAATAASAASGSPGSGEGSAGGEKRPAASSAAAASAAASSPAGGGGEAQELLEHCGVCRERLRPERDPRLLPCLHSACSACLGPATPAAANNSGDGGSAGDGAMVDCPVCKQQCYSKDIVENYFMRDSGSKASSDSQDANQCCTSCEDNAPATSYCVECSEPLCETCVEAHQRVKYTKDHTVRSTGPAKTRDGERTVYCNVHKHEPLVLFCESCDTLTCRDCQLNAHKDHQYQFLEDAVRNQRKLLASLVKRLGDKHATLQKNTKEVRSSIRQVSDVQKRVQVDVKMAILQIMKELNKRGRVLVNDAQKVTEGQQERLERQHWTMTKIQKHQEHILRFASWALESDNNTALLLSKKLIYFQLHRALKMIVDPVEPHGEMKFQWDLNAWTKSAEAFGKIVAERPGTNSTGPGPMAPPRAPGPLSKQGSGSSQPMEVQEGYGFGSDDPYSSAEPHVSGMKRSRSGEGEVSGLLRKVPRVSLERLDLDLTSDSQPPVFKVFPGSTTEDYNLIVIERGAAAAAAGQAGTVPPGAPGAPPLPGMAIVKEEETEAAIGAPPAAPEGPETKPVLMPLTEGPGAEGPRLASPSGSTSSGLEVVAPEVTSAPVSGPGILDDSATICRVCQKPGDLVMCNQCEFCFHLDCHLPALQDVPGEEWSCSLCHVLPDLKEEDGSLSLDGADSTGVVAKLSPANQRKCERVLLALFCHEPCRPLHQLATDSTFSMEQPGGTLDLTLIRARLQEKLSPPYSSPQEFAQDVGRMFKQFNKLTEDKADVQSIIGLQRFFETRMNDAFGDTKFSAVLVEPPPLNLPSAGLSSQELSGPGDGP
UniProt Q8C0D7: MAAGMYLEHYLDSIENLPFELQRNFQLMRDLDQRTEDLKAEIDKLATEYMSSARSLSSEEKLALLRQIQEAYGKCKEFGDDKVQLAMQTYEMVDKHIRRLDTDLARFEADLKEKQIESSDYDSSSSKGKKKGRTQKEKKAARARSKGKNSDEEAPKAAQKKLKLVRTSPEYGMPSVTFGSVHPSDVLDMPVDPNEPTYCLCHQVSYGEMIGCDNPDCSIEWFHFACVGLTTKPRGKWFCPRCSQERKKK
UniProt Q5SVQ0: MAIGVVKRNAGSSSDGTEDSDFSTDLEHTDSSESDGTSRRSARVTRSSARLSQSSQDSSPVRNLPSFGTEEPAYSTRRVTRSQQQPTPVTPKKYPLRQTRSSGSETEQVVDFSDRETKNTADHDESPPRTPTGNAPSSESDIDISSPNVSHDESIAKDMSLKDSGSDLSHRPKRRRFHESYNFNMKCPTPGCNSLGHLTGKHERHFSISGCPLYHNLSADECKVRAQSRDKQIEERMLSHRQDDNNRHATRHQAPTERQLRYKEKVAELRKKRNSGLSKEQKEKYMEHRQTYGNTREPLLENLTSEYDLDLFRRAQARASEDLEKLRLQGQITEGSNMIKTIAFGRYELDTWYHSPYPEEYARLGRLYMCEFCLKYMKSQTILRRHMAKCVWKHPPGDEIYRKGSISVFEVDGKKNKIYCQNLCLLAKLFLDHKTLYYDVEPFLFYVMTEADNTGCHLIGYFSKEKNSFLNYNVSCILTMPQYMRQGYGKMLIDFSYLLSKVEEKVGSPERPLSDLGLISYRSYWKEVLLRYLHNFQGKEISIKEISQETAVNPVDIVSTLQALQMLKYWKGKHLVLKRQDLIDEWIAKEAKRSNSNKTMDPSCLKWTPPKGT

T1: GST-tagged mouse Niam NT (residues 1-164) (mouse) (UniProt Q3UB74)
T1 sequence: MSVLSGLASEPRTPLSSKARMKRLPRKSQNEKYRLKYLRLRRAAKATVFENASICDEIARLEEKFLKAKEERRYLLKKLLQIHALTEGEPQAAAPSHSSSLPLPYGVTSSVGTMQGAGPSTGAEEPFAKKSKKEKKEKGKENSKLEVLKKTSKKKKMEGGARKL

T2: GST-tagged wild-type mouse Niam (mouse) (UniProt Q3UB74)
T2 sequence: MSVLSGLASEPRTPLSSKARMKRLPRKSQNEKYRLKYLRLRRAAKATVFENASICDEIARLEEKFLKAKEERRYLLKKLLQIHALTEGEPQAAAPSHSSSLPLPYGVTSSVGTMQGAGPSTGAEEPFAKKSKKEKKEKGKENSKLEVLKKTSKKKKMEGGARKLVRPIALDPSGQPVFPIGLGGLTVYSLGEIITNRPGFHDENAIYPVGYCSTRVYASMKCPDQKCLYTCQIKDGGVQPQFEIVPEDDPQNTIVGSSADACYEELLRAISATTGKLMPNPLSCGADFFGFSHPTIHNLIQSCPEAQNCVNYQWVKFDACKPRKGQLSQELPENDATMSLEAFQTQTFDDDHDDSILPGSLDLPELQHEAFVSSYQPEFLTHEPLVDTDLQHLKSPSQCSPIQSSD

T3: GST-tagged human Niam (human) (UniProt Q3YBR2)
T3 sequence: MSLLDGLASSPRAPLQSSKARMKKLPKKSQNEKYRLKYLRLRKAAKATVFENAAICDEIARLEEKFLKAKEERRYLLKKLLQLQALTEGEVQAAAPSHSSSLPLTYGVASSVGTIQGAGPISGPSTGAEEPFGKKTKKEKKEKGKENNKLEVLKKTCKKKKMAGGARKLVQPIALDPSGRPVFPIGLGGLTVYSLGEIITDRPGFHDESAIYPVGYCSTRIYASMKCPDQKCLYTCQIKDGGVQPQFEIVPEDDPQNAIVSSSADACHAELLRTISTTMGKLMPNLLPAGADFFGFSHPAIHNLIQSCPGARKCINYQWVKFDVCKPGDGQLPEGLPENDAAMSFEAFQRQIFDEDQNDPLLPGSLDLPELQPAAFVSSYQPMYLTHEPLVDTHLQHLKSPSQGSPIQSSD

T4: GST-tagged mouse Niam CT (residues 158-406) (mouse) (UniProt Q3UB74)
T4 sequence: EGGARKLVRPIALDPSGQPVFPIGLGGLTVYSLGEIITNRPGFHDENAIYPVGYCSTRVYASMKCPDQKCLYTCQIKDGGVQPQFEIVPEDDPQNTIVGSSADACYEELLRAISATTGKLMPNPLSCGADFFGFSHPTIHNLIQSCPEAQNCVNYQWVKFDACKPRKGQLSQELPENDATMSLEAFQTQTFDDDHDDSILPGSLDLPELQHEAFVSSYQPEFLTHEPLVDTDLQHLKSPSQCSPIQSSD


Experiments:
[1] = biological target: Trim28 (mouse (endogenous in E14 ESCs)) (UniProt Q62318); assay: co-IP; antibodies (2-5 ug) coupled to Dynal-Protein G beads, incubated with whole cell extracts of mouse ESCs for 1-2 h at 4 °C; endogenous proteins; western blot; control rabbit IgG
[2] = biological target: T1, GST-tagged mouse Niam NT (residues 1-164) (mouse); assay: pull-down; purified GST or GST-Niam proteins bound to glutathione sepharose, 0.5 to 1 mg of mouse ESC lysate in NP-40 buffer (50 mM Tris pH 8.0, 120 mM NaCl, 1 mM EDTA, 0.5% NP-40), overnight at 4 °C; immunoblot with anti-Myst2; only the target purified
[3] = biological target: T2, GST-tagged wild-type mouse Niam (mouse); assay: as above
[4] = biological target: T3, GST-tagged human Niam (human); assay: as above
[5] = biological target: T4, GST-tagged mouse Niam CT (residues 158-406) (mouse); assay: as above

| binding [1] | binding [2] | binding [3] | binding [4] | binding [5] | Molecule |
| --- | --- | --- | --- | --- | --- |
| binds |  |  |  |  | Ing4 (from UniProt Q8C0D7 1-249) |
|  | binds | binds | no binding | no binding | Myst2 (endogenous, untagged) (from UniProt Q5SVQ0 1-613) (enzyme) |
| binds |  |  |  |  | Phf16 (protein, UniProt Q6IE82 1-823) MKRHRPVSSSESSDECPSTSFTSSSMYRKKSKNPKEQKKSAEVFRKDLISAMKIPDSHHVNPDSYYLFTDTWKEEWEKGVQVPANPDSVPTPSLRIISEKVKEMLFVRPRKYIRCSSPESAEPGYINTLEQAASTCRYDLDDMDIFWLQELNEDLGEMGYGPIDETLMEKTIEVLERHCHENMNHAIETVEGLGIEYDEDVICDVCRSPDSEEGNDMVFCDKCNVCVHQACYGILKIPEGSWLCRSCVLGIYPQCVLCPKKGGAMKTTRTGTKWAHVSCALWIPEVSIACPERMEPVTKISHIPPSRWALVCNLCKLKTGACIQCSVKSCITAFHVTCAFEHGLEMKTILDEGDEVKFKSFCLKHSQNKPKLGDAEYHHHRVAEQSQAKSEKTSLRAQKLRELEEEFYTLVQVEDVAKEMELSAFTVDFIYNYWKLKRKSNFNKPLIPPKEEEENGLVQPKEESIHTRMRMFMHLRQDLERVRNLCYMISRREKLKLSHTKVQEQIFGLQVQLINEEITEGLSLTNALENSLFYPPPRITLKLKMPKSTSEDCKDSSTETEHQLSSPGSSSPGHSKRSPQMPEEPLDMNVKIYPRYPLESKSNCLQTSRSHSRCETKSSSPTPRAPSAEFYHGQSLGKPLALQAALHGQVSIGNGKNQPNSRVSSSNGLEGNWSGNITQKVNSSEVCYDQESMLSSHLPSPGNIRKSSMEHFSRSFKEATNTWVKPTEDLQYCVKPTKNVSSKEQLWGRQLLRRPTGRASYQETDGYCPDLEPSDSEAEGEGSKETPRVKRESSDRENPSHDSARECHGKTKTHPHSHSSMQR |
